Laboratory results: PubChem BioAssay AID1159578 (Peter MacCallum Cancer Centre, 2015)

Aim: 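Genome-wide hunt for genes controlling movement of lymphatic endothelial cells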 (primary screen)
System: human lymphatic endothelial cells
Reagents: siRNA pool against human genes, 40 nM
Duration: 48 h after transfection
Read-out: 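High-content imaging of dye-stained cells in a scratch assay measures filled wound area and nuclei per well; duplicate means given as ratio to mock and robust z-score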
Reading the numbers: migration robust z-score: higher = faster migration into the scratch; nuclei per well: higher = more cells in the well
Call rule: 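Migration changed when robust z exceeds 2 or falls below -2 and mean nuclei number is at least 3300; otherwise not called changed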
Calls: active = migration changed; inactive = no migration change, or too few cells
Shown is one part, drawn at random, of about 18,000 reagents. In the full data, about 1,030 (5.7%) are marked active. 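Inactive calls also include pools with fewer than 3300 nuclei, whose migration was not assessed.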 Raw values vary from plate to plate and are shown uncorrected. Entries without a mark were called inactive. Further read-outs or replicates are left out here.

gene | PubChem SID | migration robust z-score | migration class with cell-count check | nuclei per well, duplicate mean
ANKRD26 | SID255355817 | -0.02 | migration z between -2 and 2; enough cells | 6367
PTGDR | SID255351920 | 0.02 | migration z between -2 and 2; enough cells | 6444
NR1H3 | SID255354779 | 1.06 | migration z between -2 and 2; enough cells | 5364
CCL5 | SID255352323 | 0.94 | migration z between -2 and 2; enough cells | 5902
ZBTB24 | SID255354599 | 0.09 | migration z between -2 and 2; enough cells | 5384
CCND1 | SID255348517 | -0.88 | under 3300 nuclei; migration not judged | 2425
U2AF2 | SID255355763 | -0.14 | migration z between -2 and 2; enough cells | 4884
USP19 | SID255355402 | -0.17 | migration z between -2 and 2; enough cells | 7629
DOCK9 | SID255356175 | 0.16 | migration z between -2 and 2; enough cells | 6040
DHODH | SID255349297 | -1.48 | migration z between -2 and 2; enough cells | 3848
SPDL1 | SID255358261 | 1 | migration z between -2 and 2; enough cells | 4591
SRMS | SID255352626 | -3.27 (active) | migration z below -2; enough cells | 3972
LGALS8 | SID255350751 | -1.27 | migration z between -2 and 2; enough cells | 5452
YAE1 | SID255359226 | -0.02 | migration z between -2 and 2; enough cells | 6777
LCLAT1 | SID255364422 | 0.75 | migration z between -2 and 2; enough cells | 6450
HJURP | SID255358627 | 0.63 | migration z between -2 and 2; enough cells | 6408
TNFRSF13C | SID255362318 | -0.27 | migration z between -2 and 2; enough cells | 5260
VILL | SID255357379 | 1.12 | migration z between -2 and 2; enough cells | 4860
GIT2 | SID255354578 | 0.71 | migration z between -2 and 2; enough cells | 6014
H1-6 | SID255350128 | -0.2 | migration z between -2 and 2; enough cells | 5565
EYA2 | SID255349589 | -0.05 | migration z between -2 and 2; enough cells | 5188
FUT3 | SID255349767 | -0.86 | migration z between -2 and 2; enough cells | 5550
CBX1 | SID255355473 | 0.22 | migration z between -2 and 2; enough cells | 6076
ART3 | SID255348414 | 0.26 | migration z between -2 and 2; enough cells | 6294
RGS18 | SID255359919 | 0.38 | migration z between -2 and 2; enough cells | 4612
TLR6 | SID255355005 | 0.57 | migration z between -2 and 2; enough cells | 5748
UBA3 | SID255353984 | 0.57 | migration z between -2 and 2; enough cells | 5098
PSG7 | SID255351872 | 1.34 | migration z between -2 and 2; enough cells | 6398
FOXE3 | SID255349707 | -0.62 | migration z between -2 and 2; enough cells | 5466
MGAT4A | SID255355748 | 1.48 | migration z between -2 and 2; enough cells | 5978
GRK1 | SID255352123 | -0.93 | migration z between -2 and 2; enough cells | 6208
PRODH | SID255351838 | -0.44 | migration z between -2 and 2; enough cells | 4277

Records listed so far whose gene name begins with H or h:
gene | PubChem SID | migration robust z-score | migration class with cell-count check | nuclei per well, duplicate mean
HJURP | SID255358627 | 0.63 | migration z between -2 and 2; enough cells | 6408
H1-6 | SID255350128 | -0.2 | migration z between -2 and 2; enough cells | 5565

Continued:
gene | PubChem SID | migration robust z-score | migration class with cell-count check | nuclei per well, duplicate mean
PAX5 | SID255351424 | 0.28 | migration z between -2 and 2; enough cells | 5954
CD33 | SID255348775 | -0.18 | migration z between -2 and 2; enough cells | 6206
MON2 | SID255355948 | -0.68 | migration z between -2 and 2; enough cells | 6320
CDK11A | SID255366191 | -0.42 | migration z between -2 and 2; enough cells | 4266
B3GNT2 | SID255355282 | 0.67 | migration z between -2 and 2; enough cells | 6056
ZNF691 | SID255357436 | 0.87 | migration z between -2 and 2; enough cells | 6234
NDRG4 | SID255360073 | 1.8 | migration z between -2 and 2; enough cells | 5391
TMEM38B | SID255358451 | 0.67 | migration z between -2 and 2; enough cells | 5741
TIMP4 | SID255352873 | 1.31 | migration z between -2 and 2; enough cells | 6306
USP22 | SID255356163 | -0.42 | migration z between -2 and 2; enough cells | 5886
SLC1A2 | SID255352438 | 0.16 | under 3300 nuclei; migration not judged | 3066
RPTOR | SID255359438 | -1.83 | migration z between -2 and 2; enough cells | 6124
CXCR4 | SID255353319 | -0.21 | migration z between -2 and 2; enough cells | 3988
RBP4 | SID255352075 | 0 | migration z between -2 and 2; enough cells | 3430
TNFRSF14 | SID255353795 | 0.43 | migration z between -2 and 2; enough cells | 8352
SMAD1 | SID255350834 | 1.15 | migration z between -2 and 2; enough cells | 5010
METTL17 | SID255359968 | -1.03 | migration z between -2 and 2; enough cells | 6631
NHLH1 | SID255351239 | -1.68 | migration z between -2 and 2; enough cells | 5514
NAP1L4 | SID255351142 | 0.18 | migration z between -2 and 2; enough cells | 3782
UBR7 | SID255358448 | 0.54 | migration z between -2 and 2; enough cells | 6426
CAPZA3 | SID255362093 | -0.02 | migration z between -2 and 2; enough cells | 5718
BEX2 | SID255361482 | -0.43 | migration z between -2 and 2; enough cells | 5346
PLCE1 | SID255357553 | 0.42 | migration z between -2 and 2; enough cells | 5194
LRAT | SID255354128 | -0.11 | migration z between -2 and 2; enough cells | 4586
MEX3B | SID255361242 | 1.87 | migration z between -2 and 2; enough cells | 6220
